Reference: patent US7579334B2, “Compounds with anti-inflammatory activity” (GlaxoSmithKline Istrazivacki Centar Zagreb, priority 2003, dated 2009)
Some of these results come from one statement about several compounds together.

Test system: interleukin 4, interleukin 5 and interferon γ
Assay: Inhibition of interleukin 4, interleukin 5 and interferon γ production by concanavalin-A induced murine splenocytes
Assay type: cell-based, Balb/C mice
Details: in concentrations from 1 μM to 1 nM; concanavalin-A 5 μg/ml, 72 hours, ELISA

Compound	inhibition of the production of cytokines
CC[C@H]1OC(=O)[C@H](C)[C@@H](O)[C@H](C)[C@@H](O)[C@](C)(O)C[C@@H](C)CN(CCCNC(=O)[C@H]2[C@H](C)CC3C4CCC5=CC(=O)C=C[C@]5(C)[C@@]4(F)[C@@H](O)C[C@@]32C)[C@H](C)[C@@H](O)[C@]1(C)O (some centres unmarked) [Compound 2]	inhibit the production of cytokines
CC[C@H]1OC(=O)[C@H](C)[C@@H](O)[C@H](C)[C@@H](O)[C@](C)(O)C[C@@H](C)CN(CCCNC(=O)[C@@]2(OC)CCC3C4CCC5=CC(=O)C=C[C@]5(C)C4[C@@H](O)C[C@@]32C)[C@H](C)[C@@H](O)[C@]1(C)O (some centres unmarked) [Compound 4]	inhibit the production of cytokines
CC[C@H]1OC(=O)[C@H](C)[C@@H](O)[C@H](C)[C@@H](O)[C@](C)(O)C[C@@H](C)CN(CCCNC(=O)[C@@]2(O)CCC3C4CCC5=CC(=O)CC[C@]5(C)C4[C@@H](O)C[C@@]32C)[C@H](C)[C@@H](O)[C@]1(C)O (some centres unmarked) [Compound 5]	inhibit the production of cytokines
CC[C@H]1OC(=O)[C@H](C)[C@@H](O)[C@H](C)[C@@H](O)[C@](C)(O)C[C@@H](C)CN(CCCNC(=O)[C@@]23OC(C)(C)O[C@@H]2CC2C4C[C@H](F)C5=CC(=O)C=C[C@]5(C)[C@@]4(F)[C@@H](O)C[C@@]23C)[C@H](C)[C@@H](O)[C@]1(C)O (some centres unmarked) [Compound 6]	inhibit the production of cytokines
CC[C@H]1OC(=O)[C@H](C)[C@@H](O)[C@H](C)[C@@H](O)[C@](C)(O)C[C@@H](C)CN(CCCOC(=O)[C@H]2[C@H](C)CC3C4CCC5=CC(=O)C=C[C@]5(C)[C@@]4(F)[C@@H](O)C[C@@]32C)[C@H](C)[C@@H](O)[C@]1(C)O (some centres unmarked) [Compound 8]	inhibit the production of cytokines
